Columns and labels:
[1] = Maximum (unbound) drug concentration in human plasma; type: in vivo; conditions: fu multiplied by reported Cmax
[2] = design: method as in general information provided by pharmaceutical industries; conditions: ref general information provided by pharmaceutical industries; cited from earlier work
[3] = design: method as in general information provided by pharmaceutical industries; conditions: human plasma, reported Cmax; ref general information provided by pharmaceutical industries; cited from earlier work
human ABCG2 = target: T1, human ABCG2 (Homo sapiens, UniProt Q9UNQ0); assay: In vitro urate transport assay with ABCG2-expressing plasma membrane vesicles
T1 sequence (Q9UNQ0 1-655): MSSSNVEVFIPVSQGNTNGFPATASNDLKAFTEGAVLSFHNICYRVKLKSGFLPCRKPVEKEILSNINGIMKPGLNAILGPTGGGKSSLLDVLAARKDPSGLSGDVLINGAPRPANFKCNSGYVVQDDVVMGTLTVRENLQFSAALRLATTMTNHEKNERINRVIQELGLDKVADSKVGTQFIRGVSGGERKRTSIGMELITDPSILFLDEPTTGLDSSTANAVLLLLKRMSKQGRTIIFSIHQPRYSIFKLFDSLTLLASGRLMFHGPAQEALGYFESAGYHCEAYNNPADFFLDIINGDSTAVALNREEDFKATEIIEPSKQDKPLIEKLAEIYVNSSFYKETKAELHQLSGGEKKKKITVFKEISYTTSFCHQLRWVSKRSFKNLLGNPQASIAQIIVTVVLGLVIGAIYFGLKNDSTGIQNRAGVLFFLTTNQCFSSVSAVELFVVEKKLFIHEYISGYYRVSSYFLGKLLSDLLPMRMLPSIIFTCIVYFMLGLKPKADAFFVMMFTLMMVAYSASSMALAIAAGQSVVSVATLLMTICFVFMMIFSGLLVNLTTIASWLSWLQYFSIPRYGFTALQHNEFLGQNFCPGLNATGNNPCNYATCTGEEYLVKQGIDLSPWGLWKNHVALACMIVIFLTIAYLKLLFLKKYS

fuCmax (maximum unbound concentration in human plasma) [1]	IC50 (human ABCG2)	SMILES	fu (unbound fraction in human plasma) [2]	Cmax [3]
0.24 µM	–	NS(=O)(=O)c1cc(C(=O)O)c(NCc2ccco2)cc1Cl [Furosemide, furosemide]	9.0 × 10^-2	2700 nM
9.6e-05 µM	4.3 µM	CC(C)c1c(C(=O)Nc2ccccc2)c(-c2ccccc2)c(-c2ccc(F)cc2)n1CC[C@@H](O)C[C@@H](O)CC(=O)O [Atorvastatin, atorvastatin]	4.4 × 10^-2	2.2 nM

— article PMC5187494, “Identification of Febuxostat as a New Strong ABCG2 Inhibitor: Potential Applications and Risks in Clinical Situations” (Frontiers in Pharmacology, 2016)
